Only a part is listed here, and it is no random draw. For some of these results: At the low end of the ranking, values are background and their order means little. This is one part of the list. For some of these results: The source does not settle which construct or isoform was used.
Legend:
Assay in all cases: DAPPL (digital affinity profiling via proximity ligation, sequencing)
Conditions in all cases: 10 mM Tris-HCl pH 7.5, 50 mM NaCl, 1 mM DTT, 4% glycerol, room temperature, 30 min; GST-TFs on glutathione beads, 16-mer random dsDNA library, 0.1% …; high values mean tight binding; double strand, one strand shown; scale: fold enrichment (6-mer frequency, TF over GST control)
ELF1 = ELF1 (UniProt P32519)
ETV4 = biological target: T1, ETV4 (UniProt P43268)
T1 sequence: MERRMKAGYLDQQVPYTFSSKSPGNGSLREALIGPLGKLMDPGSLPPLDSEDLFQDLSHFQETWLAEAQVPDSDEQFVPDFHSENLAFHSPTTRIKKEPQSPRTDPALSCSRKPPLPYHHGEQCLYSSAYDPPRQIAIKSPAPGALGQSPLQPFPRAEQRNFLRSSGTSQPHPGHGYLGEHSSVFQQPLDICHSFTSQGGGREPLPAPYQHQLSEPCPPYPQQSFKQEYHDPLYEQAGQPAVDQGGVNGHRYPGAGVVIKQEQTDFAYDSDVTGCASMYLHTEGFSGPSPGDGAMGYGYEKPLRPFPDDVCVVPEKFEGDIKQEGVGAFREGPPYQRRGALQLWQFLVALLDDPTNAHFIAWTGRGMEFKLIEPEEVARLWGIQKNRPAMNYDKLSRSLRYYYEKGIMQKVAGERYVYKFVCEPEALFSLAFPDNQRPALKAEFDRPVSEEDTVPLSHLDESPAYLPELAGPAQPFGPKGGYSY

Protein sequences, listed by entry. Tags and fused reporters are not part of them. Lines headed by an entry give the natural chain unless they say otherwise; changes in a name come on top.
UniProt P32519: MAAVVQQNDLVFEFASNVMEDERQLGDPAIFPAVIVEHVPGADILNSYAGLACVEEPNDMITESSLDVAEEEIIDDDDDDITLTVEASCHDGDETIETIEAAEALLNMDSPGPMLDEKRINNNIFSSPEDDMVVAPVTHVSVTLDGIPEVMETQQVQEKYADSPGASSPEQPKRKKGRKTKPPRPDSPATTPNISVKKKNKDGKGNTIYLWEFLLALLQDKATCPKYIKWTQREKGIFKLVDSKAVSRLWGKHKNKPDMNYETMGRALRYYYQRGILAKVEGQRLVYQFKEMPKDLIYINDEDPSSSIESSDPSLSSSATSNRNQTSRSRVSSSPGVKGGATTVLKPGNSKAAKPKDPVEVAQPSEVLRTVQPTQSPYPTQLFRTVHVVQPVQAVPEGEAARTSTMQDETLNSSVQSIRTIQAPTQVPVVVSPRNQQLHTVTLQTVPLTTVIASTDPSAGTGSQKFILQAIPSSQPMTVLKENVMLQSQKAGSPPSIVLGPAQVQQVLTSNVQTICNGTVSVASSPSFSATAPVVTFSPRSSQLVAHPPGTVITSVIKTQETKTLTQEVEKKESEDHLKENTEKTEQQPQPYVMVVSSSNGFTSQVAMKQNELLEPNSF
UniProt P50549: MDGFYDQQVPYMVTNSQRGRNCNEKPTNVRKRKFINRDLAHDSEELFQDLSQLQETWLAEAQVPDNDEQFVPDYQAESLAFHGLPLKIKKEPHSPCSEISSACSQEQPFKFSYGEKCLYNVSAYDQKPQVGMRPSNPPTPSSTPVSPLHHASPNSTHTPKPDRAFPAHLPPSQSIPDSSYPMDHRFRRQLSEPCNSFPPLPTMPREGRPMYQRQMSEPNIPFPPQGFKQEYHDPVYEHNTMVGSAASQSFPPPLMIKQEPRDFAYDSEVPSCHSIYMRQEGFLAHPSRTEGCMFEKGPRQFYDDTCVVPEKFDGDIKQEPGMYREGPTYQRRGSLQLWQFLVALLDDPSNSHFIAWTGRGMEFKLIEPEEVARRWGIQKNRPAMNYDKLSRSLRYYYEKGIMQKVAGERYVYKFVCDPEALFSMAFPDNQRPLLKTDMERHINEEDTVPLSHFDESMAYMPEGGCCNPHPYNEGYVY

ETV1 = ETV1 (UniProt P50549)
ERF = biological target: T2, ERF (UniProt P50548)
T2 sequence: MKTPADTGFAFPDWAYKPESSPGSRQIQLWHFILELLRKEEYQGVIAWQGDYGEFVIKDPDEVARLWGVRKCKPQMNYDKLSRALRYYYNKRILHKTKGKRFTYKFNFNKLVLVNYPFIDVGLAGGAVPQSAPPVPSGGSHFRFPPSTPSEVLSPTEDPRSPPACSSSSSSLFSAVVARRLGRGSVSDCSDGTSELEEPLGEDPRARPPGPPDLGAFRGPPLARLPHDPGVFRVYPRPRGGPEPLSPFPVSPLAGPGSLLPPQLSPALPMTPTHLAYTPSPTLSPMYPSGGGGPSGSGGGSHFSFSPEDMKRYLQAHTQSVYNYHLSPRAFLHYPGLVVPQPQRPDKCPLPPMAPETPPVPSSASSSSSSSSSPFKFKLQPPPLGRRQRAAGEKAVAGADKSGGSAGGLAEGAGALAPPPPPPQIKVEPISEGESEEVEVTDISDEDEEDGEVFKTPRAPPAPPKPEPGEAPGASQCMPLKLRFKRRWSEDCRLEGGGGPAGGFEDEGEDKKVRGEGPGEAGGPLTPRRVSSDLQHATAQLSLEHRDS

Row | Sequence | binding signal (ELF1) | binding signal (ETV4) | binding signal (ETV1) | binding signal (ERF)
1 | TGAATA | 1.1 | 1.11 | 1.15 | –
2 | CCCAAA | 1.18 | 1.09 | 1.08 | 1.11
3 | GTTCCT | 1.72 | 1.57 | 1.79 | –
4 | ACGTAA | 1.07 | 1.06 | 1.12 | 1.12
5 | CATATG | 0.995 | 1.09 | 0.97 | –
6 | GTCATT | 0.967 | 0.874 | 0.926 | 0.981
7 | GTTAAG | – | 1.02 | 0.936 | 1.03
8 | GCGTTT | 1.08 | 1.08 | 0.988 | –
9 | ATGCCG | 1.09 | 1.12 | 1.11 | 1.01
10 | GTGCCC | 0.999 | 1.01 | 0.925 | 0.868
11 | GCTTCT | 1.59 | 1.57 | 1.42 | –
12 | ACGCGT | 0.988 | 0.978 | 0.974 | 0.954
13 | CACGAT | 1.27 | 1.29 | 1.28 | 1.29
14 | TACACA | 1.21 | 1.19 | 1.2 | –
15 | TTTTCT | – | 1.38 | 1.21 | 1.36
16 | TAAGCA | 1.07 | 0.961 | 0.962 | 0.954
17 | CCCGGT | 0.997 | 1.01 | 1.07 | 0.942
18 | AGAACA | 1.07 | 0.961 | 1.02 | –
19 | GTGTTA | 0.915 | 0.955 | 0.94 | –
20 | GCTATC | 1.14 | 1.03 | 1.09 | 1.13
21 | TATTAG | 0.992 | 1.04 | 1.12 | –
22 | GCCTGC | 1.13 | 1.08 | 1.18 | –
23 | GTAGTT | 0.996 | 0.961 | 0.987 | –
24 | AGCTGT | 0.966 | 1.03 | 0.948 | 0.935
25 | ACTGGT | 1.13 | 0.997 | 0.957 | –
26 | AGGTCC | 0.972 | 0.955 | 1.05 | 0.954
27 | TGATGC | 1.64 | 1.64 | 1.55 | 1.48

Reprinted at random: two entries already listed, in no set order.
Row | Sequence | binding signal (ELF1) | binding signal (ETV4) | binding signal (ETV1) | binding signal (ERF)
27 | TGATGC | 1.64 | 1.64 | 1.55 | 1.48
7 | GTTAAG | – | 1.02 | 0.936 | 1.03
